Reference: publication PMC4236683
No constants are given. Whether binding was seen depends on the method and setting. For some of these results: In cells and extracts the contact can be indirect. Some binding calls cover weakened binding; strength is not graded here. Sequences can lack the tags named with a protein.

T1: membrane-bound Sema5A lacking the seven TSRs (6xMyc-Sema5A^ΔTSR) (rat) (UniProt D3ZTD8)
T1 sequence: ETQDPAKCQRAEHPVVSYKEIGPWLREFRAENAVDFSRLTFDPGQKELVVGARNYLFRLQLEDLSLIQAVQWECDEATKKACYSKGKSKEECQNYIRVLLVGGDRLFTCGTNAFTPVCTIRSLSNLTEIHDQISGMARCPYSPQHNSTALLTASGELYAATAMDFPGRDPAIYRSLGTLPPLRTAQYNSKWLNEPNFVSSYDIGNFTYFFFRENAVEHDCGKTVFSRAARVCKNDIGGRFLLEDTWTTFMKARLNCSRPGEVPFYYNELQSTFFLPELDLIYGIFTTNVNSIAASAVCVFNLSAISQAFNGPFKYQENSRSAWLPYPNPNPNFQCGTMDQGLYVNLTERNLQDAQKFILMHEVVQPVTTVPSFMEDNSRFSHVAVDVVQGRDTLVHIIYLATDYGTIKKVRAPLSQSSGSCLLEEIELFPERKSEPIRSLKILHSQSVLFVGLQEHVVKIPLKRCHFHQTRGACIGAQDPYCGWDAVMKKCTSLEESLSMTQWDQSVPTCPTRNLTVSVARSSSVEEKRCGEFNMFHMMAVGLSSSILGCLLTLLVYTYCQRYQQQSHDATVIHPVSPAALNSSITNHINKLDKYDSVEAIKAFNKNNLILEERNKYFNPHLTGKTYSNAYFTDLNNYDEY

T2: Sema6A (UniProt O35464)
T2 sequence: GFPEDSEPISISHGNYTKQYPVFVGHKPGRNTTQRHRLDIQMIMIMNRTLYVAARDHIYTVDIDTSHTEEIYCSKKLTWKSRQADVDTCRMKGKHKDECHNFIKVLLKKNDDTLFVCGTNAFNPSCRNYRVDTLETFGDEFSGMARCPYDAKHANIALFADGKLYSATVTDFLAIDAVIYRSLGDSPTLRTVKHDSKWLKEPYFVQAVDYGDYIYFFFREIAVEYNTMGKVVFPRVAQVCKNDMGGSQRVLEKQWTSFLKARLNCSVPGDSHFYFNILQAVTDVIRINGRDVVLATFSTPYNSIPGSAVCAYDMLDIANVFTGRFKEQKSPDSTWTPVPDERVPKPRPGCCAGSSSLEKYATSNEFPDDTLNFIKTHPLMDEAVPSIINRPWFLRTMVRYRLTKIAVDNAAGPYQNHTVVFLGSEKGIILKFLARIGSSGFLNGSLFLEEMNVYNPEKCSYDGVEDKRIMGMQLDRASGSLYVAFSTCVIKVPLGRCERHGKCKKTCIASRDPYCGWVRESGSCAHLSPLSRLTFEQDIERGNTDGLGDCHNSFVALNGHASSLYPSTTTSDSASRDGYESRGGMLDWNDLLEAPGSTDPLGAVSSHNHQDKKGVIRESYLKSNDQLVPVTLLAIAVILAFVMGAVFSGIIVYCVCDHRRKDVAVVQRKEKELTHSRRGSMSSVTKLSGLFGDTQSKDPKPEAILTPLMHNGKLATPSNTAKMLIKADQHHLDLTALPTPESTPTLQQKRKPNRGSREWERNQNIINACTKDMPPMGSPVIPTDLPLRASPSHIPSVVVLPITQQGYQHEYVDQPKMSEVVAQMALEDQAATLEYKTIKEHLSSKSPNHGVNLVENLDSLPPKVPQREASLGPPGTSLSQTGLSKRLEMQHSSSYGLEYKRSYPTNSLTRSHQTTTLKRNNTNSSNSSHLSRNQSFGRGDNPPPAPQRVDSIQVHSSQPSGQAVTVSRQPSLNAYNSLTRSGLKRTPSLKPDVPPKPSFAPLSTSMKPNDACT

T3: 6xMyc N-terminal-tagged full-length (FL)-Sema5A (rat) (UniProt D3ZTD8)
T3 sequence: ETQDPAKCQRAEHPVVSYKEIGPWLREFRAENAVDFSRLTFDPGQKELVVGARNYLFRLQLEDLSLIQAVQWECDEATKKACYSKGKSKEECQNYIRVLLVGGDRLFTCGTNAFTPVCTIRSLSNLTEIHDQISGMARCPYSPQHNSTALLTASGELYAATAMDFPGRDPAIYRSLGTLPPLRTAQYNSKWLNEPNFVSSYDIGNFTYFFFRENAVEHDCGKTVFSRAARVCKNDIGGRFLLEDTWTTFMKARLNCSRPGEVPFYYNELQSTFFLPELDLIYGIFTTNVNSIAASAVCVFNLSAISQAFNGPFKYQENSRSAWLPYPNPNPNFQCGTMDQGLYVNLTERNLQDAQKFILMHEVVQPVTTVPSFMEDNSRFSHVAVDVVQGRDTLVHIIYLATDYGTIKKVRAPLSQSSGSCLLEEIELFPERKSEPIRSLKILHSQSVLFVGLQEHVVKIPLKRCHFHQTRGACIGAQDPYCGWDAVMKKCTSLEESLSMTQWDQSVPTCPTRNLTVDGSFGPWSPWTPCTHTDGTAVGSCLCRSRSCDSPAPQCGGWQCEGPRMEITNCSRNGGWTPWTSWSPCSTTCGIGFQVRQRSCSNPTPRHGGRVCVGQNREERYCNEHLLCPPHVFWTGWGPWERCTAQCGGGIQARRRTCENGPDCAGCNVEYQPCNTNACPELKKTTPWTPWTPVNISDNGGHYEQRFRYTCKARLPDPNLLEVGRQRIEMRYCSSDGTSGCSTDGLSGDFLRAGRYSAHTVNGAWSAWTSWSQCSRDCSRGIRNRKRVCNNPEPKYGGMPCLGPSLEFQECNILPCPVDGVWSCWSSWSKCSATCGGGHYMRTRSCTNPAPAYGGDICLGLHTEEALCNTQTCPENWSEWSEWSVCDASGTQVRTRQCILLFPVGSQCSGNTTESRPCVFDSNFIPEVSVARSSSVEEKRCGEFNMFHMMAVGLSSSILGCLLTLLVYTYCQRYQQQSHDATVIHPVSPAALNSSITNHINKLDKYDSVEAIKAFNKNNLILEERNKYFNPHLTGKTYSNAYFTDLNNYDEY

T4: Sema5A-Fc (Sema5A ectodomain fused to Fc) (rat) (UniProt D3ZTD8)
T4 sequence: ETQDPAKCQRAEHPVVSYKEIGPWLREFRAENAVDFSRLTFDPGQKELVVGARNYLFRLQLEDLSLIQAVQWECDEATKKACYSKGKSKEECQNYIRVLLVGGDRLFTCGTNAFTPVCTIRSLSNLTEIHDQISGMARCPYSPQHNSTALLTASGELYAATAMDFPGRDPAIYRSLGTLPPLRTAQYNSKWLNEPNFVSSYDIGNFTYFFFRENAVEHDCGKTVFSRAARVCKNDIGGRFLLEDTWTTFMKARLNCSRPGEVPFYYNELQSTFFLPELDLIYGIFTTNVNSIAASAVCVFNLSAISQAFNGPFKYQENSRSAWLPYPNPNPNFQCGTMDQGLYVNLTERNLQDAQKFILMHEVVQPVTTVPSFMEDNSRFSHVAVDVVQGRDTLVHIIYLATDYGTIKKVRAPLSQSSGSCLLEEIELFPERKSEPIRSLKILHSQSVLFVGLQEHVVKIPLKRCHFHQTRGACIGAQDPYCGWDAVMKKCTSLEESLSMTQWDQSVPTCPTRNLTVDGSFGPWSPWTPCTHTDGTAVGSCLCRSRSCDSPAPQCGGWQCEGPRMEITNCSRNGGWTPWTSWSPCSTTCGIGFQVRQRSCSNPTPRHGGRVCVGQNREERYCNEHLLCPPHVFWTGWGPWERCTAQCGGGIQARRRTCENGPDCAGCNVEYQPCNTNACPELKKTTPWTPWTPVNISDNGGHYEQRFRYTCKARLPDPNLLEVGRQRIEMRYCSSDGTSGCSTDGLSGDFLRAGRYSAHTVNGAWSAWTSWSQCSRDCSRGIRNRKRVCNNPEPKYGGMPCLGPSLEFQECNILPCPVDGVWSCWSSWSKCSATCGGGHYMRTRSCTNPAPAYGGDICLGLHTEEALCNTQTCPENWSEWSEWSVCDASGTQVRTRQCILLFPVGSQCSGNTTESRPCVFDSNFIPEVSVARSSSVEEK


Key:
[1] = target: T1, membrane-bound Sema5A lacking the seven TSRs (6xMyc-Sema5A^ΔTSR) (rat); experiment: binding of AP-clustered Fc fusion protein to transfected cells; COS7 cells transfected with PlexA or semaphorin constructs, incubated 75 min in OptiMEM with Fc fusion protein preclustered with anti-human IgG conjugated to alkaline phosphatase; rinsed, fixed, developed with NBT/BCIP; only the binder purified
[2] = target: T2, Sema6A; experiment: as above
[3] = target: T3, 6xMyc N-terminal-tagged full-length (FL)-Sema5A (rat); experiment: as above
[4] = target: T4, Sema5A-Fc (Sema5A ectodomain fused to Fc) (rat); experiment: pull-down; Sema5A-Fc or human IgG (50 nM) incubated with 6xMyc-tagged PlexA1 or PlexA2 ectodomain produced in HEK293T cells, pulled down with Protein G Plus/Protein A-agarose beads, anti-myc immunoblot; only the target purified

binding [1]	binding [2]	binding [3]	binding [4]	Binder
no binding	binds	no binding	–	sema domain of PlexA4 fused to Fc (PlexA4^SD-Fc) (Fc fusion, UniProt Q80UG2 24-506) TLLPRQPPQLSQKPSFVTFRGEPAEGFNHLVVDERTGHIYLGAVNRIYKLSSDLKVLVTHQTGPDEDNPKCYPPRIVQTCNEPLASTNNVNKMLLIDYKENRLIACGSLYQGICKLLRLEDLFKLGEPFHKKEHYLSGVNESGSVFGVIVSYSNFDDKLFIATAVDGKPEYFPTISSRKLTKNSEADGMFAYVFHDEFVASMIKIPSDTFTVIPDFDIYYVYGFSSGNFVYFLTLQPEMVSPPGSTTKEQVYTSKLVRLCKEDTAFNSYVEVPIGCERNGVEYRLLQAAYLSKAGAVLGRTLGVRPDDDLLFTVFSKGQKRKMKSLDESALCIFILKQINDRIKDRLQSCYRGEGTLDLAWLKVKDIPCSSALLTIDDNFCGLDMNAPLGVSEMVRGIPVFTEDRDRMTSVIAYVYKNHSLAFVGTKSGKLKKIRVDGPKGNALQYETVQVVDSGPVLRDMAFSKDHEQLYIMSERQLTRVPV
–	–	–	binds	6xMyc-tagged PlexA2 ectodomain (6x-myc-PlexA2^ect) (domain or fragment, UniProt P70207 35-1237) MPQYSTFHSENRDWTFNHLTVHRRTGAVYVGAINRVYKLTGNLTIQVAHKTGPEEDNKACYPPLIVQPCSEVLTLTNNVNKLLIIDYSENRLLACGSLYQGVCKLLRLDDLFILVEPSHKKEHYLSSVNKTGTMYGVIVRSEGEDGKLFIGTAVDGKQDYFPTLSSRKLPRDPESSAMLDYELHSDFVSSLIKIPSDTLALVSHFDIFYIYGFASGGFVYFLTVQPETPDGMAINSAGDLFYTSRIVRLCKDDPKFHSYVSLPFGCTRAGVEYRLLQAAYLAKPGEALAQAFNISSDEDVLFAIFSKGQKQYHHPPDDSALCAFPIRAINLQIKERLQSCYHGEGNLELNWLLGKDVQCTKAPVPIDDNFCGLDINQPLGGSTPVEGLTLYTTSRDRLTSVASYVYNGYSVVFVGTKSGKLKKIRADGPPHGGVQYEMVSVFKDGSPILRDMAFSINQLYLYVMSERQVTRVPVESCEQYTTCGECLSSGDPHCGWCALHNMCSRRDKCQRAWEANRFAASISQCMSLEVHPNSISVSDHSRLLSLVVNDAPNLSEGIACAFGNLTEVEGQVSGSQVICISPGPKDVPVIPLDQDWFGLELQLRSKETGKIFVSTEFKFYNCSAHQLCLSCVNSAFRCHWCKYRNLCTHDPTTCSFQEGRINVSEDCPQLVPTEEILIPVGEVKPITLKARNLPQPQSGQRGYECVLSIQGAVHRVPALRFNSSSVQCQNSSYQYDGMDISNLAVDFAVVWNGNFIIDNPQDLKVHLYKCAAQRESCGLCLKADHKFECGWCSGERRCTLHQHCPSTSSPWLDWSSHNVKCSNPQITEILTVSGPPEGGTRVTIHGVNLGLDFSEIAHHVQVAGVPCTPIPGEYIIAEQIVCEMGHAVIGTTSGPVRLCIGECKPEFMTKSHQQYTFVNPSVLSLSPIRGPESGGTMVTITGHYLGAGSSVAVYLGNQTCEFYGRSMNEIVCVSPPSSNGLGPVPVSVSVDRARVDSSLQFEYIDDPRVQRIEPEWSITSGHTPLTITGFNLDVIQEPRVRVKFNGKESVNVCTVVNTTTLTCLAPSLTSDYRPGLDTVERPDEFGFLFNNVQSLLIYNDTKFIYYPNPTFELLSPTGILDQKPGSPIILKGKNLCPPASGGAKLNYTVMIGETPCTVTVSETQLLCEPPNLTGQHKVMVHVGGMVFSPGSVSVISDSLLTLP
